Data: US11999746B2, “Compounds” (GlaxoSmithKline Intellectual Property Development Limited, priority 2014, dated 2024)
Some results were stated once for a whole list of compounds, not compound by compound.

These molecules were tested against recombinant human PLA2-VIIB (Homo sapiens, UniProt Q99487) (assay: (2b) Alternative PLA2 VIIB assay (2-thio-PAF substrate)). Conditions: Examples 266-412 were tested here.
Type: biochemical

Selectivity between human recombinant Lp-PLA2 and PLA2 VIIB, at least 100 fold:
CCCC(=O)N1CCN2c3cc(OCc4ccc(F)c(C#N)c4)nc(=O)n3CC2C1.O=C(O)C(F)(F)F (stereo not shown) [Example E291, 5-(((2-Butyryl-9-oxo-2,3,4,9,11,11a-hexahydro-1H-pyrazino[1′,2′:3,4]imidazo[1,2-c]pyrimidin-7-yl)oxy)methyl)-2-fluorobenzonitrile 2,2,2-trifluoroacetate]
N#Cc1cc(COc2cc3n(c(=O)n2)CC2CN(C(=O)C4CC4)CCN32)ccc1F.O=C(O)C(F)(F)F (stereo not shown) [Example E292, 5-(((2-(cyclopropanecarbonyl)-9-oxo-2,3,4,9,11,11a-hexahydro-1H-pyrazino[1′,2′:3,4]imidazo[1,2-c]pyrimidin-7-yl)oxy)methyl)-2-fluorobenzonitrile 2,2,2-trifluoroacetate]
CC(C)CC(=O)N1CCN2c3cc(OCc4ccc(F)c(C#N)c4)nc(=O)n3CC2C1 (stereo not shown) [Example E293, 2-Fluoro-5-(((2-(3-methylbutanoyl)-9-oxo-2,3,4,9,11,11a-hexahydro-1H pyrazino[1′,2′:3,4]imidazo[1,2-c]pyrimidin-7-yl)oxy)methyl)benzonitrile]
CC(C)(C)C(=O)N1CCN2c3cc(OCc4ccc(F)c(C#N)c4)nc(=O)n3CC2C1.O=C(O)C(F)(F)F (stereo not shown) [Example E294, 2-Fluoro-5-(((9-oxo-2-pivaloyl-2,3,4,9,11,11a-hexahydro-1H-pyrazino[1′,2′:3,4]imidazo[1,2-c]pyrimidin-7-yl)oxy)methyl)benzonitrile 2,2,2-trifluoroacetate]
CC(C)S(=O)(=O)N1CCN2c3cc(OCc4ccc(F)c(C#N)c4)nc(=O)n3CC2C1.O=C(O)C(F)(F)F (stereo not shown) [Example E295, 2-Fluoro-5-(((2-(isopropylsulfonyl)-9-oxo-2,3,4,9,11,11a-hexahydro-1H-pyrazino[1′,2′:3,4]imidazo[1,2-c]pyrimidin-7-yl)oxy)methyl)benzonitrile 2,2,2-trifluoroacetate]
N#Cc1cc(COc2cc3n(c(=O)n2)CC2CN(S(=O)(=O)C4CC4)CCN32)ccc1F.O=C(O)C(F)(F)F (stereo not shown) [Example E296, 5-(((2-(Cyclopropylsulfonyl)-9-oxo-2,3,4,9,11,11a-hexahydro-1H-pyrazino[1′,2′:3,4]imidazo[1,2-c]pyrimidin-7-yl)oxy)methyl)-2-fluorobenzonitrile 2,2,2-trifluoroacetate]
N#Cc1cc(COc2cc3n(c(=O)n2)CC2CN(C(=O)C4(N)CC4)CCN32)ccc1F.O=C(O)C(F)(F)F (stereo not shown) [Example E297, 5-(((2-(1-Aminocyclopropanecarbonyl)-9-oxo-2,3,4,9,11,11a-hexahydro-1H-pyrazino[1′,2′:3,4]imidazo[1,2-c]pyrimidin-7-yl)oxy)methyl)-2-fluorobenzonitrile 2,2,2-trifluoroacetate]
CC(C)(N)CC(=O)N1CCN2c3cc(OCc4ccc(F)c(C#N)c4)nc(=O)n3CC2C1.O=C(O)C(F)(F)F (stereo not shown) [Example E298, 5-(((2-(3-Amino-3-methylbutanoyl)-9-oxo-2,3,4,9,11,11a-hexahydro-1H-pyrazino[1′,2′:3,4]imidazo[1,2-c]pyrimidin-7-yl)oxy)methyl)-2-fluorobenzonitrile 2,2,2-trifluoroacetate]
CC(=O)N1CCN2c3cc(OCc4cc(F)c(Oc5ccc(C)nc5)c(F)c4)nc(=O)n3CC2C1 (stereo not shown) [Example E299, 2-Acetyl-7-((3,5-difluoro-4-((6-methylpyridin-3-yl)oxy)benzyl)oxy)-3,4,11,11a-tetrahydro-1H-pyrazino[1′,2′:3,4]imidazo[1,2-c]pyrimidin-9(2H)-one]
COC(=O)N1CCN2c3cc(OCc4ccc(F)c(F)c4)nc(=O)n3CC2C1 (stereo not shown) [Example E300, Methyl 7-((3,4-difluorobenzyl)oxy)-9-oxo-3,4,11,11a-tetrahydro-1H-pyrazino[1′,2′:3,4]imidazo[1,2-c]pyrimidine-2(9H)-carboxylate]
CN(C)C(=O)N1CCN2c3cc(OCc4ccc(F)c(F)c4)nc(=O)n3CC2C1 (stereo not shown) [Example E301, 7-((3,4-Difluorobenzyl)oxy)-N,N-dimethyl-9-oxo-3,4,11,11a-tetrahydro-1H-pyrazino[1′,2′:3,4]imidazo[1,2-c]pyrimidine-2(9H)-carboxamide]
N#Cc1cc(COc2cc3n(c(=O)n2)CC2CN(C(=O)C4CCC4)CCN32)ccc1F (stereo not shown) [Example E302, 5-(((2-(Cyclobutanecarbonyl)-9-oxo-2,3,4,9,11,11a-hexahydro-1H-pyrazino[1′,2′:3,4]imidazo[1,2-c]pyrimidin-7-yl)oxy)methyl)-2-fluorobenzonitrile]
CC(C)C(=O)C(=O)N1CCN2c3cc(OCc4ccc(F)c(F)c4)nc(=O)n3CC2C1 (stereo not shown) [Example E303, 1-(7-((3,4-Difluorobenzyl)oxy)-9-oxo-3,4,11,11a-tetrahydro-1H-pyrazino[1′,2′:3,4]imidazo[1,2-c]pyrimidin-2(9H)-yl)-3-methylbutane-1,2-dione]
CCCN1CCN2c3cc(OCc4ccc(F)c(F)c4)nc(=O)n3CC2C1 (stereo not shown) [Example E304, 7-((3,4-Difluorobenzyl)oxy)-2-propyl-3,4,11,11a-tetrahydro-1H-pyrazino[1′,2′:3,4]imidazo[1,2-c]pyrimidin-9(2H)-one]
CC(C)CN1CCN2c3cc(OCc4ccc(F)c(F)c4)nc(=O)n3CC2C1 (stereo not shown) [Example E305, 7-((3,4-Difluorobenzyl)oxy)-2-isobutyl-3,4,11,11a-tetrahydro-1H-pyrazino[1′,2′:3,4]imidazo[1,2-c]pyrimidin-9(2H)-one]
CCOC(=O)N1CCN2c3cc(OCc4ccc(F)c(F)c4)nc(=O)n3CC2C1 (stereo not shown) [Example E306, Ethyl 7-((3,4-difluorobenzyl)oxy)-9-oxo-3,4,11,11a-tetrahydro-1H-pyrazino[1′,2′:3,4]imidazo[1,2-c]pyrimidine-2(9H)-carboxylate]
CC(C)OC(=O)N1CCN2c3cc(OCc4ccc(F)c(F)c4)nc(=O)n3CC2C1 (stereo not shown) [Example E307, Isopropyl 7-((3,4-difluorobenzyl)oxy)-9-oxo-3,4,11,11a-tetrahydro-1H-pyrazino[1′,2′:3,4]imidazo[1,2-c]pyrimidine-2(9H)-carboxylate]
CNC1(C(=O)N2CCN3c4cc(OCc5ccc(F)c(F)c5)nc(=O)n4CC3C2)CC1 (stereo not shown) [Example E308, 7-((3,4-Difluorobenzyl)oxy)-2-(1-(methylamino)cyclopropanecarbonyl)-3,4,11,11a-tetrahydro-1H-pyrazino[1′,2′:3,4]imidazo[1,2-c]pyrimidin-9(2H)-one]
CC(C)C(=O)N1CCN2c3cc(OCc4ccc(F)c(F)c4)nc(=O)n3CC2C1 (stereo not shown) [Example E310, 7-((3,4-Difluorobenzyl)oxy)-2-isobutyryl-3,4,11,11a-tetrahydro-1Hpyrazino[1′,2′:3,4] imidazo[1,2-c]pyrimidin-9(2H)-one]
